# Data reported in PubChem BioAssay AID1347426 (Functional Genomics Laboratory (NCATS/FGL), 2020).
# About 1,400 (4.5%) of roughly 31,000 sequences were called active.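 The calls were made as follows: active = median seed-adjusted z-score above 1 or below -1; inactive = the rest.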 The list shows a part of the results.
# Assay: Novel Modifiers of Survival Motor Neuron (SMN) Protein: Gene Identification via Genome-wide siRNA Screen;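 also: luminescence tracks full-length SMN protein made from the SMN2 reporter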
# Conditions: HEK293T SMN2-luciferase reporter, siRNA knockdown, 72 h; actives lie on both sides
# Procedure, shortened: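 Each of three siRNAs per gene is reverse-transfected (1 pmol) into reporter HEK293T cells whose luciferase output tracks SMN protein level. After 72 h culture, ONE-Glo luminescence is control-normalized, log10-transformed and MAD-standardized; Common Seed Analysis deprioritizes seed-driven hits.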
row,Sequence,median seed-adjusted z-score
1,GGCUCAUAAUGGAGCAGGUTT against TIMM13,inactive: -0.422
2,GAACCACUAUGAUCAUUGATT against DPYSL2,inactive: -0.569
3,GGUUAUUGUCGGUAUCGGATT against ADAM7,inactive: -0.0638
4,GGAUGAUGUGCGUAACAGATT against HAO1,inactive: 0.421
5,CAUUGACCACUACAAGUAATT against ITFG1,inactive: -0.417
6,CCAAAGAGCGGGACCUGUATT against MAFA,inactive: 0.424
7,GCUUCACACUCGGUAGACATT against ZNF749,inactive: 0.911
8,CAACCUCAACCAACCGGAATT against FAT2,inactive: -0.286
9,AGACAGUGCAUGGUCCUGATT against GLI1,inactive: -0.347
10,CAAAAAUGAUUGCGAAUGATT against APOL4,inactive: -0.54
11,GCGUGGAAGUGAUUCGUCUTT against ATP8B1,inactive: 0.357
12,GCUCGUGCCUUAGACAAGATT against QPCT,inactive: 0.933
13,CGCAUAUGCCUCAAUCAAATT against REEP6,inactive: -0.348
14,GCACGAAUGGAAUAGAUAATT against WWP1,inactive: -0.442
15,GUGCCGGAACUGAUCAGAATT against BAX,inactive: -0.478
16,CCUGGUUCAUUUUCGCCUUTT against SLC13A3,inactive: 0.0434
17,CAACCAAACGGGAGCUUGATT against USP22,inactive: 0
18,GGAACAAUUCUCCAACCUATT against T,inactive: -0.018
19,GAUUUGCUGUUCUAUACAATT against GLS,inactive: 0
20,CAGCUCUUCGAAUAACCAATT against ME1,inactive: -0.258
21,GCGAGUAGAUAAUAUCGAATT against MAP3K5,inactive: -0.285
22,CAGCGAUGCUACGACAAUATT against PHF17,active: 1.01
23,GCUGCUACAAGUUCAUCCATT against PSEN2,inactive: -0.147

row,Sequence,median seed-adjusted z-score
1,CGAUCGCAAGUACCACGAATT against ATP8B1,inactive: 0.357
2,GGGCUGUGAUUAUUCCGAATT against XCR1,inactive: -0.292
3,GAGUCAGGAUCGCAAGUCATT against SAFB2,inactive: 0.0394
4,CAGAGUGACUUAGGAAUUATT against KIF25,inactive: -0.0031
5,GGAAUGAAGGUCAUCGAAATT against TPM2,inactive: 0.305
6,CCGGGAAAGUAGAAUUACATT against IGF2BP1,inactive: -0.993
7,GCUGUUAGAUAAGCCCAAUTT against B3GAT3,inactive: -0.00603
8,GGACAUCUGACCAGAGAAATT against LILRB3,inactive: 0.0304
9,GAACAAAACCCGUUACAAUTT against CHRNB4,inactive: -0.317
10,GUACGUUAGCCUAAUUGAATT against ZKSCAN5,inactive: -0.229
11,GCAAUGGACCAGUAUAGUATT against ANAPC7,inactive: -0.263
12,GGAGUACUACGAUCGCAUUTT against PYGM,inactive: -0.0689
13,GGGAGUAAGUUACUGCUAATT against CHST5,inactive: 0.0149
14,ACAUGGAUGUAUUCCACUUTT against IL21R,inactive: 0.0068
15,GCUUUACAGAAAGCCGUGATT against STRADB,inactive: 0.21
16,CCUUCUCCUGAGUUUUUCATT against LHPP,inactive: 0.02
17,GGACAAAGACUGUCGCCUATT against DHX35,inactive: -0.066
18,CAACUGCUACCUUAGCAUATT against RNF133,inactive: 0
19,GAACUGUGCUGAUGUGAAATT against PATE1,active: 1.21
20,GUCCCUACGUGUACUGAAATT against LIAS,inactive: -0.31
21,GCGCAACGGUUUAACCAUUTT against ATP7B,inactive: 0.0947
22,AUGACUAUCCUAAAUUUAATT against SEC11A,inactive: -0.494
23,GGUUUCGACUUCAACAUCATT against 3-Sep,inactive: 0.0683

# A section taken from the entries so far, for reference:
row,Sequence,median seed-adjusted z-score
22,CAGCGAUGCUACGACAAUATT against PHF17,active: 1.01
23,GCUGCUACAAGUUCAUCCATT against PSEN2,inactive: -0.147
1,CGAUCGCAAGUACCACGAATT against ATP8B1,inactive: 0.357
2,GGGCUGUGAUUAUUCCGAATT against XCR1,inactive: -0.292
3,GAGUCAGGAUCGCAAGUCATT against SAFB2,inactive: 0.0394
4,CAGAGUGACUUAGGAAUUATT against KIF25,inactive: -0.0031
5,GGAAUGAAGGUCAUCGAAATT against TPM2,inactive: 0.305
6,CCGGGAAAGUAGAAUUACATT against IGF2BP1,inactive: -0.993
7,GCUGUUAGAUAAGCCCAAUTT against B3GAT3,inactive: -0.00603
8,GGACAUCUGACCAGAGAAATT against LILRB3,inactive: 0.0304
9,GAACAAAACCCGUUACAAUTT against CHRNB4,inactive: -0.317
10,GUACGUUAGCCUAAUUGAATT against ZKSCAN5,inactive: -0.229
11,GCAAUGGACCAGUAUAGUATT against ANAPC7,inactive: -0.263
12,GGAGUACUACGAUCGCAUUTT against PYGM,inactive: -0.0689
13,GGGAGUAAGUUACUGCUAATT against CHST5,inactive: 0.0149
14,ACAUGGAUGUAUUCCACUUTT against IL21R,inactive: 0.0068
15,GCUUUACAGAAAGCCGUGATT against STRADB,inactive: 0.21
16,CCUUCUCCUGAGUUUUUCATT against LHPP,inactive: 0.02
17,GGACAAAGACUGUCGCCUATT against DHX35,inactive: -0.066
18,CAACUGCUACCUUAGCAUATT against RNF133,inactive: 0
19,GAACUGUGCUGAUGUGAAATT against PATE1,active: 1.21

# The results go on.

row,Sequence,median seed-adjusted z-score
1,GCAACAACGACAUCAAUGATT against RNH1,inactive: 0.55
2,GUAUUCUCAAAAACGUAUATT against PDE3A,inactive: 0.291
3,GGAUUCUAAGUACAGAGAATT against ZNF323,inactive: -0.319
4,CUUCCUGGGUGUAAUGUUATT against IGSF1,inactive: 0.258
5,GGAUGCUUGUAUAUUCGUATT against S1PR3,inactive: -0.0931
6,GUGCUACUGUUUAUCCGUATT against VEGFA,inactive: 0.495
7,CGGACUUCAUUGUUCUCAATT against A4GALT,inactive: -0.286
8,GCUGAUCUAGCUCAAUUUATT against CCT8L2,inactive: -0.39
9,GUAUUCUCAUCUUCGUCUATT against ATP1A4,inactive: 0.116
10,GUACCGAGAGAAUAACAAATT against SYP,inactive: -0.0289
11,GAGGGAAACUAAUCUGGAUTT against VIM,inactive: 0.431
12,GUGGUUUCUUGAUCUGAAATT against HSDL2,inactive: -0.0717
13,GGAAAUCUCGGAGAUCACATT against MLYCD,inactive: -0.154
14,GGAGUGCAAGGACAAGUAUTT against IRX2,inactive: -0.409
15,CCUGCUAUUUAGUCAUUGATT against AOAH,inactive: -0.123
16,GCAAAUUGCUGCCCACGCUTT against NHLH2,inactive: 0
17,CUAGAUGUCUAUAACAAUATT against PPP3CC,inactive: 0.271
18,GCGUCGAAGUUGUAGGAUUTT against ATAD2,inactive: -0.246
19,GUGUGGUACAGAACAUUUATT against GUCA1C,inactive: -0.617
20,GGACUAGUAUAGGAAUGGATT against ABCG2,inactive: 0
21,GAGAUUCCAAAAUUAGAUATT against VRK1,inactive: -0.148
22,GCAUAGACAUGGUCUCCGATT against GABRB1,inactive: 0.238
23,GCUAUUGGAGGAUCAGUUUTT against CCND1,inactive: -0.912
